For at least one compound, name, drawing or mass did not settle the structure.
Test system: LU1205 cells
Experiment: Apoptosis by FACS (hypodiploid fraction)
Type: cell-based, human
Settings: parent and ATF2-peptide expressing LU1205 cells; PI3K inhibitor treatment
Method: Treatment and apoptosis studies of stably transfected melanoma cells. Cells were exposed to UVC at 75 J/m^2 as previously described (Ronai, Z., et al., Oncogene 1998; 16:523-531). SB203580 (1-10 μM) (Calbiochem®, San Diego, Calif.), NCS (50-100 ng/ml) and mitomycin C (MMC) (0.2-1 μM) were used to treat melanoma cells. Flow cytometric analysis was performed on a FACSCalibur™ flow cytometer (Becton Dickinson) using CellQuest™ software as described previously (Nicoletti et al., J. Immunol. Methods 1991; 139:271-279). Cells were pelleted and resuspended in 0.5 ml of hypotonic buffer with 0.1% Triton X-100 containing PI (40 μg/ml) and DNase-free RNase A (1 mg/ml). Cells were incubated at 37° C. for 30 min and analyzed on a FACSCalibur™ flow cytometer (Becton Dickinson). The percentage of cells to the left of the diploid G0/1 peak, characteristic of hypodiploid cells that have lost DNA, was defined as the percentage of apoptotic cells. Analysis was performed with light scatter gating. Surface expression of Fas was determined using anti-Fas-PE antibody (PharMingen® CA) and flow cytometric analysis. Cell surface expression is measured as mean fluorescence intensity (MFI).

O=c1cc(N2CCOCC2)oc2c(-c3ccccc3)cccc12 [LY294002, reference compound]
sensitivity to UV-induced apoptosis: did not alter sensitivity

— patent publication US7935525B2, “Inhibition of ATF2 activity to treat cancer” (Mount Sinai School of Medicine, priority 2001, dated 2011)
